Source: the supplement of paper PMC8426693
The other results are listed elsewhere or left out.

Columns and labels:
Assay in all cases: NMR binding call after quantification (hit when 2 of 3 NMR criteria are met) (binary (1 = binding, 0 = not binding)); higher = binding
Conditions in all cases: RNA concentration 10 µM; fragment concentration 200 µM; 293 K
[1] = tested on: SARS-CoV-2 3'-UTR RNA
[2] = tested on: SARS-CoV-2 3_SL1 RNA
[3] = tested on: SARS-CoV-2 3_SL1+2 RNA
[4] = tested on: SARS-CoV-2 3_SL2 RNA
[5] = tested on: SARS-CoV-2 3_SL3base RNA
[6] = tested on: SARS-CoV-2 3_s2m RNA
[7] = tested on: SARS-CoV-2 5'-UTR RNA
[8] = tested on: SARS-CoV-2 5_SL1 RNA
[9] = tested on: SARS-CoV-2 5_SL1234 RNA
[10] = tested on: SARS-CoV-2 5_SL2+3 RNA
[11] = tested on: SARS-CoV-2 5_SL4 RNA
[12] = tested on: SARS-CoV-2 5_SL5 RNA
[13] = tested on: SARS-CoV-2 5_SL5a RNA
[14] = tested on: SARS-CoV-2 5_SL5b+c RNA
[15] = tested on: SARS-CoV-2 5_SL5stem RNA
[16] = tested on: SARS-CoV-2 5_SL6 RNA

Measured: NMR binding call

CC(CO)N(C)c1ncccc1F (stereo unspecified)
0: all assays above

CC(=O)Nc1ccccc1O
0: all assays above

Cc1noc(CC(N)c2ccccc2)n1.Cl (stereo unspecified)
0: all assays above

CC(=O)N1CCC(N)CC1
0: all assays above

COc1ccc(CNC2CCCC2)cc1
0: all assays above

Cc1cccc(C(=O)N(C)C)c1C
0: all assays above

CC(=O)Nc1cccc(F)c1C(=O)O
0: all assays above

Cc1csc(CNC(=O)C2CCC2)n1
0: all assays above

Cc1ccc(CNC(=O)Cc2cccs2)cc1
0: all assays above

O=C(c1c(F)cccc1F)N1CCCCCC1
0: all assays above

CC(=O)N1CC(C(=O)O)C1
0: all assays above

Cl.O=C(CC(F)(F)F)N1CCNCC1
0: all assays above

O=C(Nc1ccc(N2CCOCC2)cc1)C1CC1
0: all assays above

CCC(=O)Nc1ccc(C)cc1O
0: all assays above

NC(=O)c1ccc(OCc2ccccc2)cc1
0: all assays above

C(#Cc1ccccc1)CN1CCCCC1
0: all assays above

Fc1cccc(CN2CCOCC2)c1
0: all assays above

O=C(NCCc1ccc(F)cc1)c1ccco1
0: all assays above

COCC(=O)NCc1nc2ccccc2[nH]1
0: all assays above

Cc1noc(C(N)C(C)C)n1 (stereo unspecified)
0: all assays above

O=C(Nc1cccc(F)c1)c1cnccn1
0: all assays above

CNC(=O)c1c(-c2ccc(F)cc2)noc1C
0: all assays above

Cl.O=C(O)CCN1CCCCC1
0: all assays above

CCC1CCC(NCC2CCCO2)CC1 (stereo unspecified)
0: all assays above

CC(=O)N1CC2CCC1c1ccccc12 (stereo unspecified)
0: all assays above

NC(=O)C1CCC(F)(F)CC1
0: all assays above

CC(N)C(=O)N1CCCCC1C (stereo unspecified)
0: all assays above

CCc1nnc(NC(=O)C(F)(F)F)s1
0: all assays above

O=C(O)Cc1ccc(-c2ccccc2)cc1
0: all assays above

O=c1[nH]cc(N2CCCCC2)c(=O)[nH]1
0: all assays above

Cc1nsc(N2CCCNCC2)n1
0: all assays above

OCC1CCN(c2ncccn2)CC1
0: all assays above

Cc1nc(CC(=O)N2CCOCC2)cs1
0: all assays above

Compounds from the list above that have an NH in an aromatic ring:
COCC(=O)NCc1nc2ccccc2[nH]1
0: all assays above

O=c1[nH]cc(N2CCCCC2)c(=O)[nH]1
0: all assays above

Next part:

CCc1nc(C2CCCN2)no1 (stereo unspecified)
0: all assays above

CCNC(=O)c1ccc(NS(C)(=O)=O)cc1
0: all assays above

Cl.Cl.Cl.FC(F)n1ccnc1CN1CCNCC1
0: all assays above
